These are yes or no findings as the source states them, for the method shown. Some binding calls cover weakened binding; strength is not graded here.
Target: T1, truncated Bid labelled with Alexa647 (tBid-Alexa647) (murine), P70444
T1 chain: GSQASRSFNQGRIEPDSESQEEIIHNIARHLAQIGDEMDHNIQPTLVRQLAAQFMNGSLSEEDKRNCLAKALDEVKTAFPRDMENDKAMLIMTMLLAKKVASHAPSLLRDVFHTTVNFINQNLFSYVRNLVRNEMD
Test: single particle fluorescence intensity (stoichiometry) analysis of confocal images; same bilayer and images as a1; event intensity normalised by the monomer brightness measured by FCS and binned into putative monomers, dimers, etc.; both purified
Details: remark: other sources report otherwise

B1: truncated Bid labelled with Alexa647 (tBid-Alexa647), P70444 60-195 (domain or fragment)
chain: T1 chain
modifications: here or on the partner: Alexa647 bound by maleimide chemistry to the cysteine residue at position 126; Alexa647 bound by maleimide chemistry to the cysteine residue at position 126
Q: B1 was tested. Which binding did it give?
A: Its binding is “binds”.
